Assay results from PubChem BioAssay (NCATS).
Several values for one entry are separate records, joined by “and”; a condition that tells them apart may be missing. Equal entries are not always repeated. The list shows a part of the results. Shown are side measurements of this screen, not its main read-out; they come without a call. For some assays here: The list favours compounds with an active or inconclusive main result. For some assays here: Potencies come from curve fits of mixed quality, noted in brackets.

Key:
[1] = qHTS Assay for Modulators of Human Peripheral Myelin Protein 22 (PMP22) Expression/Activity (AID 1967); details: Cell-based PMP22 reporter, dual-color luciferase ratio
In short: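 Readout is the corrected green/red luminescence ratio after 24 h compound exposure, normalised to untreated cells (0%). Engineered MSC80 mouse Schwann cells express green luciferase from the mouse Pmp22 promoter and red luciferase from EF-alpha as internal control.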

[2] = qHTS Validation Assay to Find Inhibitors of Chronic Active B-Cell Receptor Signaling (AID 485345); details: ABC-DLBCL cells, chronic BCR signaling reporter
In short: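 TMD8 ABC-DLBCL cells stably carrying doxycycline-inducible IkappaBalpha–green luciferase fusion plus unfused red luciferase; compounds 46 uM to 3 nM, 4 h at 37C with doxycycline. Corrected green/red luminescence ratio normalized to 10 uM MG-132 and basal cell wells; curves fitted.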

[3] = qHTS assay for small molecule antagonists of androgen receptor signaling (AID 588516); details: AR-UAS-bla HEK293, beta-lactamase ratio, antagonist mode, 16 h
In short: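 Antagonist mode: inhibition of R1881-stimulated (10 nM final) bla reporter in GeneBLAzer AR HEK 293 cells, 16 h at 37C, compounds titrated. IC50 and efficacy from Hill-equation fits of 405/460–530 nm FRET ratios.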

[4] = qHTS assay for small molecule antagonists of glucocorticoid receptor signaling (AID 588533); details: HeLa MMTV-bla, GRE beta-lactamase ratio, antagonist mode, 18 h; measured here: W530 channel AC50
[5] = qHTS assay for small molecule antagonists of peroxisome proliferator-activated receptor delta signaling (AID 588535); details: HEK293T PPARd-UAS-bla, beta-lactamase FRET ratio, 18 h; 460 nm channel;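 note: cells co-treated with a PPAR-delta agonist as stimulator during compound exposure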
In short: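 Fluorescence from CCF4-loaded GeneBLAzer PPAR-delta-UAS-bla HEK293T cells (2 hrs RT loading) quantified reporter inhibition after an 18 hr, 37 C compound exposure across a titration.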

[6] = qHTS assay for small molecule antagonists of peroxisome proliferator-activated receptor gamma signaling (AID 588537); details: HEK293 PPARg-UAS-bla, beta-lactamase ratio, antagonist mode; measured here: W460 blue channel
In short: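 Fluorescence at 460 and 530 nm (405 nm excitation) reported beta-lactamase cleavage of CCF4 after 2 h room-temperature loading. HEK293 reporter cells in 1% charcoal/dextran-treated FBS had received compound and rosiglitazone for 16 h.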

[7] = qHTS assay for small molecule agonists of retinoid X receptor alpha signaling (AID 588544); details: HEK293T RXRa-UAS-bla, beta-lactamase reporter, 18 h; 530 nm emission
[8] = qHTS assay for small molecule antagonists of retinoid X receptor alpha signaling (AID 588546); details: HEK293T RXRa-UAS-bla, beta-lactamase ratio, antagonist mode; measured here: W530 green channel, cytotoxicity proxy;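 note: cells stimulated with 9-cis-retinoic acid as agonist; % is set by controls: 0 for no effect and ±100 for the full control effect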
In short: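 Beta-lactamase reporter inhibition, read as CCF4 fluorescence ratio (ex 405, em 460/530 nm) after 2 h at RT. HEK293T UAS-bla cells, 2500/well, were stimulated with 9-cis-RA at 500 or 100 nM final alongside test compound for 18 h at 37 C.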

[9] = S16 Schwann cell PMP22 intronic element beta-lactamase assay (AID 624044); details: S16 rat Schwann cells, PMP22 element beta-lactamase FRET, 24 h
In short: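 Beta-lactamase reporter under a PMP22 intronic regulatory element in stable S16 rat Schwann cells; 24 h compound exposure. 460 nm blue signal normalized between DMSO (0%) and potassium clavulanate, with 535 nm FRET tracking viability; curves classed by r2 and response.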

[10] = qHTS Validation Assay for Iinhibitors of HIV-1 Budding by Blocking the Interaction of PTAP/TSG101 (AID 485342); details: TSG101-PTAP binding, fluorescence polarization, 4-point titration; measured here: FITC channel readout
In short: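 Fluorescence polarization of 50 nM FITC-PTAP peptide bound to 10 uM Tsg101 binding domain was read after 20 min room-temperature incubation with compounds, in 10 mM HEPES pH 7.5, 0.15 M NaCl, 0.01% Tween 20.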

[11] = Nrf2 qHTS screen for inhibitors: Validation (AID 493153); details: A549 ARE-Fluc reporter, 18-24 h; AC50: CellTiter-Fluor fluorescence read, measured here: cytotoxicity CellTiter-Fluor AC50; viability change: measured here: cytotoxicity max response
In short: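 A549 ARE_Fluc, 5% FBS OPTI-MEM; cpd titration, 18-24 h, 37°C/5% CO2. Read 1: CellTiter-Fluor (Ex 405/Em 525), cytotox. Read 2: luciferase lum, Nrf2 activity.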

[12] = qHTS Assay for Inhibitors of PDE-IV (AID 607); details: HEK293 ACTOne CNG channel cells, membrane potential fluorescence; measured here: parental cell counter-screen
In short: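 The readout is membrane depolarisation from a cAMP-sensing CNG channel, detected with a potential dye at ex 535/em 590. Cells were HEK293-derived (endogenous PDE-IV) at 1000 cells/well, titrated up to 22.9 uM final.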

[13] = measured here: green reporter channel AC50, mouse Pmp22 promoter in mouse Schwann cells
[14] = measured here: red reporter channel AC50, EF-alpha promoter control reporter in MSC80 mouse Schwann cells
[15] = measured here: CBR control luciferase (viability counter)
[16] = measured here: W460 blue channel fit
[17] = measured here: W530 green channel, cytotoxicity/artifact
[18] = measured here: CBG/CBR ratio read-out

For CCS(=O)(=O)Nc1cccc(C(=C2CCCCC2)c2cnc[nH]2)c1, the AC50 [1, 13] was 75.7 µM [falling, single point] and the AC50 [1, 14] was 84.9 µM [falling, single point].

With C[C@@H]1O[C@@H](O[C@H]2C[C@@H](O)[C@]3(CO)[C@@H]4C(CC[C@]3(O)C2)[C@@]2(O)CC[C@H]([C@@H]3COC(=O)C3)[C@@]2(C)C[C@H]4O)[C@H](O)[C@H](O)[C@H]1O (stereo partly drawn) the AC50 [2, 15] was 1.84 µM [rising, partial curve].

With NCC(CP(=O)(O)O)c1ccc(Cl)cc1 (stereo not drawn) the AC50 [1, 14] was 84.9 µM [falling, single point] and the AC50 [2, 15] was 0.517 µM [rising, full curve, poor fit].

For CN(C)c1ccc(N)cc1, the AC50 [3, 16] was 56.2 µM [falling, partial curve, poor fit].

With O=c1ccc(=O)[nH][nH]1 the AC50 [3, 16] was 0.251 µM [rising, full curve, poor fit].

In the case of N#CSCSC#N, the AC50 [3, 16] is reported as 44.7 µM [falling, partial curve] and 25.1 µM [falling, full curve], the AC50 [3, 17] is reported as 50.1 µM [rising, partial curve, poor fit] and 28.2 µM [rising, single point] and the AC50 [4] is reported as 31.6 µM [falling, single point] and 39.8 µM [falling, partial curve, poor fit]. For the same compound, the max response [5] was -117%, the AC50 [6] was 39.8 µM [falling, partial curve, poor fit] and 28.2 µM [falling, full curve] and the max response [7] was -26.9% and -38%. The max response [8] was -29.3% and -49.2%.

With CCCCC/C=C\C/C=C\C/C=C\C/C=C\CCCC(=O)NCC(=O)O the AC50 [1, 14] was 84.9 µM [falling, single point], the AC50 ([9]; measured here: 460 nm blue channel) was 0.251 µM [falling, full curve, poor fit] and the AC50 ([9]; measured here: 530 nm viability channel) was 0.282 µM [falling, full curve].

In the case of CN1C2CCC1CC(OC(=O)c1cc(Cl)cc(Cl)c1)C2 (stereo not drawn), the AC50 [1, 13] is reported as 42.6 µM [falling, full curve], the AC50 [1, 14] is reported as 60.1 µM [falling, partial curve] and the AC50 [2, 15] is reported as 18.4 µM [falling, single point].

In the case of CCOC(=O)Nc1ccc(NCc2ccc(F)cc2)nc1N, the AC50 [10] is reported as 44.7 µM [falling, partial curve] and the viability change [11] is reported as -7.42%.

With COc1ccc(CNC(=O)/C=C/c2ccc3[nH]cc(CCN(C)C)c3c2)cc1 the AC50 [1, 13] was 84.9 µM [falling, single point] and the AC50 [1, 14] was 84.9 µM [falling, single point].

Compound N[C@@H](Cn1ccc(=O)c(O)c1)C(=O)O has a viability change [11] of -6.93%.

In the case of O=C(O)CC[N+](=O)[O-], the viability change [11] is reported as -6.79%.

Compound CC(=O)[C@H]1CC[C@H]2[C@@H]3CC[C@H]4C[C@H](O)CC[C@]4(C)[C@H]3C(=O)C[C@]12C has a viability change [11] of -5.42%.

In the case of c1ccc2c(N3CCNCC3)cccc2c1, the AC50 [1, 13] is reported as 42.6 µM [falling, full curve], the AC50 [1, 14] is reported as 42.6 µM [falling, full curve] and the AC50 [2, 18] is reported as 16.4 µM [falling, single point].

With C=CCN1CCc2cccc3c2[C@H]1Cc1ccc(O)c(O)c1-3 the AC50 [2, 18] was 29.1 µM [falling, single point].

For COc1ccc2c(c1)c(CCN1CCOCC1)c(C)n2C(=O)c1cccc(Cl)c1Cl, the AC50 [2, 18] was 2.06 µM [falling, full curve], the AC50 [2, 15] was 1.84 µM [rising, partial curve] and the viability change [11] was 4%.

For CN(C)CCC=C1c2ccccc2CCc2ccccc21, the AC50 [1, 13] was 75.7 µM [falling, partial curve], the AC50 [1, 14] was 84.9 µM [falling, single point] and the max response [8] was 14.4% and 5.47%.

In the case of c1ccc2sc(C3(N4CCCCC4)CCCCC3)cc2c1, the AC50 [12] is reported as 15.8 µM [rising, single point], the AC50 [1, 13] is reported as 75.7 µM [falling, partial curve] and the AC50 [1, 14] is reported as 84.9 µM [falling, single point].

In the case of CCCSP(=O)(OCC)SCCC, the AC50 [3, 17] is reported as 6.31 µM [falling, full curve, poor fit].

For C[C@]12CC[C@@H]3c4ccc(O)cc4C[C@@H](CCCCCCCCCS(=O)CCCC(F)(F)C(F)(F)F)[C@H]3[C@@H]1CC[C@@H]2O (stereo partly drawn), the viability change [11] was -15.2%.

In the case of C[C@@H]1CC[C@@]2(OC1)O[C@H]1[C@@H](O)[C@H]3[C@@H]4CC[C@H]5C[C@@H](O[C@@H]6O[C@H](CO)[C@H](O[C@@H]7O[C@H](CO)[C@@H](O)[C@H](O[C@@H]8OC[C@@H](O)[C@H](O)[C@H]8O)[C@H]7O[C@@H]7O[C@H](CO)[C@@H](O)[C@H](O[C@@H]8O[C@H](CO)[C@@H](O)[C@H](O)[C@H]8O)[C@H]7O)[C@H](O)[C@H]6O)[C@H](O)C[C@]5(C)[C@H]4CC[C@]3(C)[C@H]1[C@@H]2C, the AC50 [3, 16] is reported as 22.4 µM [falling, partial curve], the AC50 [3, 17] is reported as 17.8 µM [falling, full curve] and the AC50 [4] is reported as 35.5 µM [falling, partial curve]. For the same compound, the max response [5] was -80.7%, the AC50 [6] was 39.8 µM [falling, partial curve] and the max response [7] was -63.7%. It also gave a max response [8] of -42.7%.

In the case of O=[N+]([O-])/C=C/c1ccc2c(c1)OCO2, the AC50 [2, 18] is reported as 4.61 µM [falling, single point] and the AC50 [2, 15] is reported as 16.4 µM [falling, single point].

For CC(=O)[C@@]1(O)CC[C@H]2[C@@H]3CCC4=CC(=O)CC[C@]4(C)[C@H]3CC[C@@]21C, the viability change [11] was 4.6% and the AC50 [4] was 7.08 µM [rising, single point].
